According to PMC5291280:
These are yes or no findings as the source states them, for the method shown. Binding seen in cells or lysates may run through a third protein. Some entries that bind do so weakly or less than the wild type. Tags and fused reporters may be left off the sequences shown.

Protein sequences, listed by entry. Tags and fused reporters are not part of them.
UniProt P06730: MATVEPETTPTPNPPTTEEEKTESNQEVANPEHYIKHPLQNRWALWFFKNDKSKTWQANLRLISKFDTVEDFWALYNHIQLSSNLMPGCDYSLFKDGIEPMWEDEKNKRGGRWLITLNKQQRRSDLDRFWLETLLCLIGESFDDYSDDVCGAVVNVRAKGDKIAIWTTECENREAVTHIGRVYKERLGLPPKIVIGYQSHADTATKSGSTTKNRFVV
UniProt Q8ND56: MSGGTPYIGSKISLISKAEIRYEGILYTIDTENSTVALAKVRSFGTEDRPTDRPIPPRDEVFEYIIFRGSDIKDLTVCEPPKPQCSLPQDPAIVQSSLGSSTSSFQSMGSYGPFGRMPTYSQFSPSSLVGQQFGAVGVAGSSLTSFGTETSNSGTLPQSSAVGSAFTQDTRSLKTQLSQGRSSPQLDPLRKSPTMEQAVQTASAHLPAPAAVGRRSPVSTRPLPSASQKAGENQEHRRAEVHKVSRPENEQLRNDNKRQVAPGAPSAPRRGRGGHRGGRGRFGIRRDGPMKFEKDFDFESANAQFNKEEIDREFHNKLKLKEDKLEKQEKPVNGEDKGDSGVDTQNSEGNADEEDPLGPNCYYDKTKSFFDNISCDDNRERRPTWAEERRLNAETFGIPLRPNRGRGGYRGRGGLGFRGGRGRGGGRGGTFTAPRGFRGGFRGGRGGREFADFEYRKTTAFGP
UniProt O60573: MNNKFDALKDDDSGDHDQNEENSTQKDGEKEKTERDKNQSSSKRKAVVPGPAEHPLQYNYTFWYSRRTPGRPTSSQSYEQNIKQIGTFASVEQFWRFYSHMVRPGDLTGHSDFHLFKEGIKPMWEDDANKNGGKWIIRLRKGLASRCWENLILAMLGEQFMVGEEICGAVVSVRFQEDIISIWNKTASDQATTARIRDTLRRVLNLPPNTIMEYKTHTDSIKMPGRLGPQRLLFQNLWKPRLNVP

T1: FLAG-UNR (human) (UniProt O75534)
T1 sequence: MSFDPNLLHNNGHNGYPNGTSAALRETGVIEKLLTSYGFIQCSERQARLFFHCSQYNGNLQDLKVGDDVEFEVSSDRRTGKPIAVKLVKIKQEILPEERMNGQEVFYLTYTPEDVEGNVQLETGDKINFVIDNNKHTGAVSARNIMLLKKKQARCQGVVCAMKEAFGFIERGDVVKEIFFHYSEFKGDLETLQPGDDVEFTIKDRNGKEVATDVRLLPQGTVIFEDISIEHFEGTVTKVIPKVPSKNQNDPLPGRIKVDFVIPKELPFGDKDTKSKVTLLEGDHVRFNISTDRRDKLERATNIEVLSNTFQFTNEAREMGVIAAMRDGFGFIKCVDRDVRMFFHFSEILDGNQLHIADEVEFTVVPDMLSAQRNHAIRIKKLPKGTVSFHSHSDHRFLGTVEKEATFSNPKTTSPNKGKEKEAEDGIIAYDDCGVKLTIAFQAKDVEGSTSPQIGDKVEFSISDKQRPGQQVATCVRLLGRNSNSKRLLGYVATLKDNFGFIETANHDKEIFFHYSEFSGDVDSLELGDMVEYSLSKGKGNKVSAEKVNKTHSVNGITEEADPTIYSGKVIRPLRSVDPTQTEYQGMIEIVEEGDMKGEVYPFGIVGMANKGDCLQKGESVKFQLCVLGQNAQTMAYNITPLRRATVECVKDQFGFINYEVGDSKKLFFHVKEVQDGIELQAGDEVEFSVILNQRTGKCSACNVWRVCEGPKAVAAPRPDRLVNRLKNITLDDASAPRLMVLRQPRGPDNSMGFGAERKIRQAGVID

T2: FLAG-4E-T1-193 (human) (UniProt Q9NRA8)
T2 sequence: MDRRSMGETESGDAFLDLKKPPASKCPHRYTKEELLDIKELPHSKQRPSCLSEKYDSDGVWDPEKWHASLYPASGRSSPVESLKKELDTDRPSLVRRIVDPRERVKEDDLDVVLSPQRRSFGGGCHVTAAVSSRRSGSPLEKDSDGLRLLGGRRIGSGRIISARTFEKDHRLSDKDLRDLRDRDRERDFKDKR

T3: FLAG-4E-T 441-985 (human) (UniProt Q9NRA8)
T3 sequence: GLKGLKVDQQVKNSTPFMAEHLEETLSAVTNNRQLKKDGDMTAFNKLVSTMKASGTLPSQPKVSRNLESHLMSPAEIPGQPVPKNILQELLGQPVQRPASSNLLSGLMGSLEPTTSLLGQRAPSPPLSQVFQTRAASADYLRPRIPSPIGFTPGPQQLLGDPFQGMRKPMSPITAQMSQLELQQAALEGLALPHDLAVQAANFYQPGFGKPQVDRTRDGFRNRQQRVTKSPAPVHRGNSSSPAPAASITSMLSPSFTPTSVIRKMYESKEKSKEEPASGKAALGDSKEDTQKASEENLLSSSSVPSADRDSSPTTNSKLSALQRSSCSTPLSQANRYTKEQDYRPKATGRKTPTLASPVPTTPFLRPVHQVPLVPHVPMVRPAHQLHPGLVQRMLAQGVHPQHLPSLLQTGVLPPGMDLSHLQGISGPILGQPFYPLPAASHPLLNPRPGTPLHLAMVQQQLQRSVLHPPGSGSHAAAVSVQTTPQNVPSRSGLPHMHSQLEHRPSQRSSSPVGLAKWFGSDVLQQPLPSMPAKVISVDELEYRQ

T4: FLAG-4E-TΔI (human) (UniProt Q9NRA8)
T4 sequence: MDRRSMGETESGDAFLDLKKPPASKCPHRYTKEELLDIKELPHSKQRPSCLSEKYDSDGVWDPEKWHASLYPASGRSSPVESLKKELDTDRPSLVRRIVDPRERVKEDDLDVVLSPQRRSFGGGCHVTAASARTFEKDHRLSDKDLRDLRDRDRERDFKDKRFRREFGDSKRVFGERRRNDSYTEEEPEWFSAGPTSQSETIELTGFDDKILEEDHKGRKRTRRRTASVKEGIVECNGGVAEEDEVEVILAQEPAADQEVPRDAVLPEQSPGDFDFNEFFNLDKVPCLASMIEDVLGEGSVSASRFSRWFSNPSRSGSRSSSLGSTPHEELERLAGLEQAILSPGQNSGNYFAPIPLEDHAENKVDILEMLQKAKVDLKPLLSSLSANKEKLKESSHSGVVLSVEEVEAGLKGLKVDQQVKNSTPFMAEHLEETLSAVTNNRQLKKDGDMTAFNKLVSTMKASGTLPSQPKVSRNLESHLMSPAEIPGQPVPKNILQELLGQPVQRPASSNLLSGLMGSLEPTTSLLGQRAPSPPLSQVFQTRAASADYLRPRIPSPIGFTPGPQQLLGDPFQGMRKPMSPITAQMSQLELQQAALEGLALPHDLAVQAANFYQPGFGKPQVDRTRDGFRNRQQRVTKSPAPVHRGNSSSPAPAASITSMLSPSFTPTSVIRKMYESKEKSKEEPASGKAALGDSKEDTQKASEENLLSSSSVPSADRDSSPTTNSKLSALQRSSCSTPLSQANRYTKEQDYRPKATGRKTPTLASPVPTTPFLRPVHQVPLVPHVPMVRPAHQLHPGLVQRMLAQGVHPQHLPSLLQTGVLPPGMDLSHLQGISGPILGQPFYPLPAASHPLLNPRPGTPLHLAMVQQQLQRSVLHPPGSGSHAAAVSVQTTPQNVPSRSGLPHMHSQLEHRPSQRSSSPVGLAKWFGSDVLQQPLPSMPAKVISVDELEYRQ


Legend:
Test in all cases: co-IP; anti-FLAG M2 beads on lysates of transfected HEK293T cells, eluted with SDS loading buffer, western blot; lysates with or without RNase A (40 μg/ml); in some panels cells also given siRNA against β-globin, DDX6, UNR or unrip, or co-transfected with HA-DDX6
FLAG-UNR (human) = target: T1, FLAG-UNR (human)
FLAG-4E-T1-193 (human) = target: T2, FLAG-4E-T1-193 (human)
[1] = target: T3, FLAG-4E-T 441-985 (human)
FLAG-4E-TΔI (human) = target: T4, FLAG-4E-TΔI (human)

Molecule | binding (FLAG-UNR (human)) | binding (FLAG-4E-T1-193 (human)) | binding [1] | binding (FLAG-4E-TΔI (human))
eIF4E1, endogenous (from UniProt P06730 1-217) |  |  |  | binds
PAT1B, endogenous (protein, UniProt Q86TB9 1-770) MFRYESLEDCPLDEDEDAFQGLGEEDEEIDQFNDDTFGSGAVDDDWQEAHERLAELEEKLPVAVNEQTGNGERDEMDLLGDHEENLAERLSKMVIENELEDPAIMRAVQTRPVLQPQPGSLNSSIWDGSEVLRRIRGPLLAQEMPTVSVLEYALPQRPPQGPEDDRDLSERALPRRSTSPIIGSPPVRAVPIGTPPKQMAVPSFTQQILCPKPVHVRPPMPPRYPAPYGERMSPNQLCSVPNSSLLGHPFPPSVPPVLSPLQRAQLLGGAQLQPGRMSPSQFARVPGFVGSPLAAMNPKLLQGRVGQMLPPAPGFRAFFSAPPSATPPPQQHPPGPGPHLQNLRSQAPMFRPDTTHLHPQHRRLLHQRQQQNRSQHRNLNGAGDRGSHRSSHQDHLRKDPYANLMLQREKDWVSKIQMMQLQSTDPYLDDFYYQNYFEKLEKLSAAEEIQGDGPKKERTKLITPQVAKLEHAYKPVQFEGSLGKLTVSSVNNPRKMIDAVVTSRSEDDETKEKQVRDKRRKTLVIIEKTYSLLLDVEDYERRYLLSLEEERPALMDDRKHKICSMYDNLRGKLPGQERPSDDHFVQIMCIRKGKRMVARILPFLSTEQAADILMTTARNLPFLIKKDAQDEVLPCLLSPFSLLLYHLPSVSITSLLRQLMNLPQSAATPALSNPHLTAVLQNKFGLSLLLILLSRGEDLQSSDPATESTQNNQWTEVMFMATRELLRIPQAALAKPISIPTNLVSLFSRYVDRQKLNLLETKLQLVQGIR |  | no binding | binds | binds
CNOT4, endogenous (protein, UniProt O95628 1-575) MSRSPDAKEDPVECPLCMEPLEIDDINFFPCTCGYQICRFCWHRIRTDENGLCPACRKPYPEDPAVYKPLSQEELQRIKNEKKQKQNERKQKISENRKHLASVRVVQKNLVFVVGLSQRLADPEVLKRPEYFGKFGKIHKVVINNSTSYAGSQGPSASAYVTYIRSEDALRAIQCVNNVVVDGRTLKASLGTTKYCSYFLKNMQCPKPDCMYLHELGDEAASFTKEEMQAGKHQEYEQKLLQELYKLNPNFLQLSTGSVDKNKNKVTPLQRYDTPIDKPSDSLSIGNGDNSQQISNSDTPSPPPGLSKSNPVIPISSSNHSARSPFEGAVTESQSLFSDNFRHPNPIPSGLPPFPSSPQTSSDWPTAPEPQSLFTSETIPVSSSTDWQAAFGFGSSKQPEDDLGFDPFDVTRKALADLIEKELSVQDQPSLSPTSLQNSSSHTTTAKGPGSGFLHPAAATNANSLNSTFSVLPQRFPQFQQHRAVYNSFSFPGQAARYPWMAFPRNSIMHLNHTANPTSNSNFLDLNLPPQHNTGLGGIPVAGEEEVKVSTMPLSTSSHSLQQGQQPTSLHTTVA | binds |  |  | binds

Results, then the molecule that gave them:

binding (FLAG-UNR (human)) | binding (FLAG-4E-T1-193 (human)) | binding [1] | binding (FLAG-4E-TΔI (human)) | Molecule
no binding | no binding | binds | binds | LSM14A, endogenous (from UniProt Q8ND56 1-463)
 |  |  | binds | eIF4E2, endogenous (from UniProt O60573 1-245)
